PubChem BioAssay AID504808 | Drosophila RNAi Screening Center, 2011
In all, the deposit lists about 21,000 reagents; shown is a random part of those with a known target gene and a result. Of all reagents, 18 (0.084%) got an active call. 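Raw counts without plate normalisation, one of two replicates; the ratio scores behind the calls were not deposited.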 A plus sign joins genes that one reagent is predicted to hit. No sequences are given here. Not stated in the record: the amount of reagent, the time to read-out.

Aim: 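Genes whose loss lifts activity of an E2F-responsive reporter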 (primary screen)
System: Drosophila S2 cells
Knock-down reagent: long dsRNA against Drosophila genes
Detection: 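Firefly luciferase driven by E2F sites, normalised to Renilla luciferase on the same minimal promoter, measured by plate reader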
Scale: E2F firefly: higher = more E2F reporter activity; Renilla normaliser: higher = more normaliser reporter signal
Hit rule: 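a knock-down counted as active when the firefly/Renilla E2F signal rose above 50%, a threshold chosen arbitrarily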

The first 10 entries, to show the layout:
predicted target	dsRNA	E2F firefly, rep 1	Renilla normaliser, rep 1	Call
CG31650	DRSC03140	1.01e5	4643	inactive
CG14937	DRSC02419	1.38e5	4010	inactive
Nap1	DRSC04626	82460	3434	inactive
Tmx3	DRSC10471	73337	3010	inactive
CG2006	DRSC15412	1861	920	inactive
CG2006 + Spase12	DRSC14316	1.13e5	6349	inactive
Gcna	DRSC18553	2046	940	inactive
cathD	DRSC07588	1.46e5	4940	inactive
Desat1	DRSC16668	1.05e5	6958	inactive
CG7376	DRSC10829	73967	3413	inactive

The listing, from the start:
predicted target	dsRNA	E2F firefly, rep 1	Renilla normaliser, rep 1	Call
CG31650	DRSC03140	1.01e5	4643	inactive
CG14937	DRSC02419	1.38e5	4010	inactive
Nap1	DRSC04626	82460	3434	inactive
Tmx3	DRSC10471	73337	3010	inactive
CG2006	DRSC15412	1861	920	inactive
CG2006 + Spase12	DRSC14316	1.13e5	6349	inactive
Gcna	DRSC18553	2046	940	inactive
cathD	DRSC07588	1.46e5	4940	inactive
Desat1	DRSC16668	1.05e5	6958	inactive
CG7376	DRSC10829	73967	3413	inactive
CG34231	DRSC05323	1.22e5	4732	inactive
CG15577	DRSC18065	1.03e5	4882	inactive
SmydA-2	DRSC10296	1.16e5	6213	inactive
AANATL3	DRSC02089	1.03e5	4287	inactive
CG1090	DRSC12150	76337	3381	inactive
CG32022	DRSC09678	1.10e5	3897	inactive
Gr64f	DRSC08447	99703	4064	inactive
ZnT63C	DRSC08032	1.26e5	3606	inactive
ZnT63C	DRSC08033	1.34e5	3777	inactive
ZnT63C	DRSC08519	74850	3562	inactive
CG42565	DRSC04154	1.04e5	4254	inactive
CG5404	DRSC15793	82281	3423	inactive
EDTP	DRSC07409	1.33e5	4932	inactive
CG7730	DRSC10909	64455	3976	inactive
CG30495	DRSC06703	1.45e5	4550	inactive
Sulf1	DRSC16874	1.21e5	6323	inactive
CG31953 (retired record) + gkt	DRSC00709	85445	3990	inactive
PH4alphaSG1	DRSC15080	1.28e5	6691	inactive
Gnptab	DRSC07057	1.46e5	4987	inactive
ast	DRSC00803	84530	3584	inactive
tra	DRSC11405	1.66e5	8955	inactive
Set	DRSC16861	76019	3551	inactive
TfIIFalpha	DRSC12608	67983	3686	inactive
CG33770	DRSC11717	1.34e5	5723	inactive
CG31782 (retired record)	DRSC01554	1.57e5	5813	inactive
CG31782 (retired record)	DRSC01556	1.45e5	5470	inactive
flip	DRSC12326	1.44e5	6821	inactive
CG34001	DRSC09042	1.37e5	5077	inactive
CG8046	DRSC07059	3088	195	inactive
Dph1	DRSC09851	63442	3014	inactive
CG8191	DRSC20091	1.45e5	5851	inactive
ph-p	DRSC18820	1.31e5	6570	inactive
CG3386	DRSC08566	99760	4221	inactive
CG4631	DRSC02766	94278	4330	inactive
Alg10	DRSC10892	1.46e5	7999	inactive
Glg1	DRSC11815	74446	3342	inactive
Glg1	DRSC11816	1.21e5	5329	inactive
Glg1	DRSC11817	1.40e5	6775	inactive
CG31675	DRSC01825	1.23e5	4378	inactive
Toll-9	DRSC11776	1.25e5	6717	inactive
CG31709	DRSC01081	1.49e5	5200	inactive
dpr19	DRSC02237	1.58e5	4849	inactive
Ptp61F	DRSC08683	89549	4541	inactive
CG4440	DRSC02747	87220	3898	inactive
zda	DRSC06936	64492	2956	inactive
CG33998	DRSC05747	1.61e5	5244	inactive
CG1024	DRSC12496	1.38e5	6853	inactive
robo1	DRSC04712	98434	3718	inactive
ppan	DRSC17030	1.01e5	6353	inactive
r	DRSC19813	2.46e5	6556	inactive
r	DRSC19814	1.53e5	6366	inactive
bic	DRSC07584	2602	198	inactive
RpL12	DRSC04344	80742	5371	inactive
TkR99D	DRSC16881	1.28e5	6016	inactive
tbrd-1	DRSC14601	1.13e5	6175	inactive
CG18628	DRSC10328	77992	3491	inactive
LysD + LysB + LysC (retired record)	DRSC21249	1.40e5	6099	inactive
Cht10	DRSC03766	1.08e5	4793	inactive
Cht10	DRSC03767	77777	3565	inactive
Cht10	DRSC03768	1.02e5	4272	inactive
CG13855	DRSC14705	1.35e5	6865	inactive
Dhx15	DRSC06036	90806	3306	inactive
TpnC25D	DRSC02965	1.46e5	5720	inactive
CG8010	DRSC20072	1.63e5	5166	inactive
CG8006	DRSC10949	75090	3602	inactive
betaTub85D	DRSC16910	1.16e5	5968	inactive
CG17819	DRSC15279	1.35e5	6560	inactive
CG11327	DRSC02146	1.33e5	5074	inactive
Sodh1	DRSC12605	69244	3662	inactive
E(z)	DRSC11147	85047	231	inactive
CecA2	DRSC16604	1.17e5	6171	inactive
CG4678	DRSC19911	2.30e5	8061	inactive
CG4678	DRSC19912	2.65e5	8161	inactive
Pgant1	DRSC07095	94060	3996	inactive
